Results are given in words; binding and its absence hold for the method and conditions named.

Amino acid sequences for entries named in this document (tags omitted). A change or cut given only in a name is not applied to a line headed by its entry. Chains listed by the source or under a name are the forms on record and can include a tag or linker.
CaMKK2_(93–517) D330A, unphosphorylated (Q96RR4, form named): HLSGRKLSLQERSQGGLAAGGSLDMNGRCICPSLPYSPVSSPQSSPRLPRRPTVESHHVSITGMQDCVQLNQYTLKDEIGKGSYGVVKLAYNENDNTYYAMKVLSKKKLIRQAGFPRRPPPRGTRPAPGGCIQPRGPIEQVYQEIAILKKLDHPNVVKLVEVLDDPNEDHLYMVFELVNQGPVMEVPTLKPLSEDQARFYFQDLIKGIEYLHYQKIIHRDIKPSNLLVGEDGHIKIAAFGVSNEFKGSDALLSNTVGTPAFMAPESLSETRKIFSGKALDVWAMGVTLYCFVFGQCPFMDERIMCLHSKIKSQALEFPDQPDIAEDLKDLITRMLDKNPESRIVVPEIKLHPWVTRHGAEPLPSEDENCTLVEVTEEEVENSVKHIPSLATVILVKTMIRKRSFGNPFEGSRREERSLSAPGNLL

This experiment has as its target CaMKK2_(93–517) D330A, unphosphorylated (human) (UniProt Q96RR4). Nature of the experiment: AUC; sedimentation velocity of CaMKKs alone at two concentrations (CaMKK1 at 10 μM); 50 mM Tris–HCl pH 7.5, 150 mM NaCl, 1 mM TCEP; 20°C, 42,000 rpm; monomer to dimer; both purified.

“CaMKK2_(93–517) D330A, unphosphorylated (from UniProt Q96RR4 93-517) (domain or fragment)”: the binding result was “no binding”.

Values taken from PMC10588359.
